Out of some 360,000 compounds screened, about 7,500 (2.1%) were called active. The shares of active, inactive and inconclusive entries below differ from those in the screen. Calls follow the shape of the dose curve; as a rule, active = well fitted inhibition curve with a large enough effect; inconclusive = small, poorly fitted or top-dose-only effect, or effect the other way; inactive = flat fitted curve, though single readings scatter. Where the call is inconclusive, the potency comes from a doubtful curve fit.
assay: Nrf2 qHTS screen for inhibitors; conditions: A549 ARE-Fluc reporter, luciferase luminescence, 18-24 h; activity change, negative = inhibition: at 46 µM (top of the series); also: nearly all actives have a fitted effect of over 60% in size
Outline: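 Quantitative HTS in A549 cells stably bearing an antioxidant response element-firefly luciferase construct. Inhibition of Nrf2-driven transcription was scored by luminescence after 18-24 h of compound exposure at 37 °C.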
% is scaled to controls: 0 for no effect and ±100 for the full control effect; potency is read from the fitted curve at half-maximal effect.

Row | Structure (SMILES) | Potency | activity change, negative = inhibition
1 | Oc1ccccc1-c1nc(NCc2cccnc2)c2ccccc2n1 | active: 11.6 µM | 
2 | Cc1cccc(NC(=O)Cn2nnc3ccccc32)c1 | inconclusive: 8.2 µM [activator, partial curve] | 
3 | CCN(C(=O)CN1C(=O)COc2ccc(S(=O)(=O)N3CCOCC3)cc21)c1ccc(OC)cc1 | inconclusive: 29.1 µM [activator, single point] | 
4 | COc1ccc(OCCN2CCN(C(=O)c3ccc(OC)c(OC)c3)CC2)cc1 | active: 23.1 µM | 
5 | CCOC(=O)c1[nH]c(C)c(C(=O)NCc2ccc(Cl)cc2)c1C |  | inactive: -7.53%
6 | CC(C)Oc1cccc(C(=O)C2CCCN(C(=O)c3cc(C4CC4)[nH]n3)C2)c1 (stereo not drawn) |  | inactive: -18.3%
7 | N#Cc1nc(-c2ccc(COc3ccccc3)o2)oc1N1CCN(c2ccccc2)CC1 |  | inactive: 0.0767%
8 | Cc1nc(-c2ccc(NC(=O)c3cccs3)cc2)cs1 | inconclusive: 1.46 µM [activator, partial curve] | 
9 | CCN(CC)c1c(-c2ccccc2)c2cc(C)ccc2[nH]c1=O |  | inactive: 1.87%
10 | CCc1ccc(CNC(=O)c2cnc3sc(N4CCOCC4)nn3c2=O)cc1 |  | inactive: 7.44%
11 | CN(C)c1ccc(Nc2nc(N)c3ccccc3n2)cc1 | inconclusive: 14.6 µM [falling, single point] | 
12 | Cc1ccc(S(=O)(=O)CC(CN2CCOCC2)N2CCOCC2)cc1 (stereo not drawn) |  | inactive: 20.7%
13 | O=S(=O)(c1ccccc1)N1CCC(n2nnc3cc(F)ccc32)CC1 | inconclusive: 11.6 µM [falling, single point] | 
14 | CCOC(=O)c1nn(-c2ccc(F)cc2)c(=O)cc1OCC(=O)Nc1cccc(C)c1 | inconclusive: 29.1 µM [falling, single point] | 
15 | CC1=C(C(=O)OCc2ccc3c(c2)OCO3)C(c2ccc(F)cc2)NC(=O)N1 (stereo not drawn) | active: 4.11 µM | 
16 | O=C(Nc1cccn(Cc2ccccc2)c1=O)NC1CCCCC1 |  | inactive: -3.97%
17 | COc1ccc(Cl)cc1NC(=S)N(Cc1ccc(C(=O)O)cc1)Cc1ccc(OC)c(OC)c1 | inconclusive: 1.46 µM [falling, partial curve, poor fit] | 
18 | CCOC(=O)Cn1c(=O)oc2cc(S(=O)(=O)N3CCN(c4cccc(C)c4)C(C)C3)ccc21 (stereo not drawn) |  | inactive: 21.8%
19 | CC(=O)Nc1ccc2nc3c(=O)n(C)c(=O)n(C)c3nc2c1C |  | inactive: -19.4%
20 | CCCN(C(=O)CCSc1ccc(F)cc1)c1c(N)n(Cc2ccccc2)c(=O)[nH]c1=O |  | inactive: 3.16%
21 | N#CCc1nc(CSc2nc3ccccc3o2)cs1 | inconclusive: 18.4 µM [activator, partial curve, poor fit] | 
22 | Cc1ccc2nc(SCC(=O)Nc3ccc4sc(C)nc4c3)c(C#N)cc2c1 |  | inactive: 10.3%
23 | CCN1C(=O)[C@H]2[C@@H](c3ccc(-c4cccc(Cl)c4)c(OC)c3)N[C@@](CC(C)C)(C(=O)OC)[C@H]2C1=O | inconclusive: 16.4 µM [falling, single point] | 

Row | Structure (SMILES) | Potency | activity change, negative = inhibition
24 | Cn1c(CN2CCN(c3ccccc3NS(C)(=O)=O)CC2)nc2ccccc21 | inconclusive: 25.9 µM [falling, single point] | 
25 | O=C(Nc1ccc(-c2nc3ccccc3o2)cc1)c1ccc(N2C(=O)C3C4C=CC(C4)C3C2=O)cc1 (stereo not drawn) | inconclusive: 5.8 µM [falling, partial curve] | 
26 | CC(C)c1nn2c(=O)cc(COC(=O)c3cccs3)nc2s1 | inconclusive: 2.59 µM [activator, partial curve] | 
27 | COc1ccc([N+](=O)[O-])cc1NC(=O)CSc1ccc2ccccc2c1 | active: 18.4 µM | 
28 | Cc1nc2cccnc2n1-c1cccc(C(=O)NCCN(C)C)c1 | inconclusive: 29.1 µM [activator, single point] | 
29 | Cc1ccc(C(=O)Cn2c(=N)n(CCN3CCOCC3)c3ccccc32)cc1 | inconclusive: 29.1 µM [activator, single point] | 
30 | COc1ccc(N(C)C2=NS(=O)(=O)c3ccccc32)cc1 | inconclusive: 4.11 µM [falling, full curve, poor fit] | 
31 | Cc1ccc(NS(=O)(=O)c2ccc3c(c2)oc(=O)n3C)c(C)c1 | inconclusive: 7.31 µM [falling, partial curve, poor fit] | 
32 | O=C(COC(=O)c1ccncc1)Nc1ccccc1 | inconclusive: 23.1 µM [activator, partial curve] | 
33 | COc1nc(C)ccc1-c1noc(-c2cccnc2)n1 | inconclusive: 14.6 µM [activator, partial curve, poor fit] | 
34 | COc1ccc(C(=O)c2nccc3ccccc23)cc1 | inconclusive: 20.6 µM [activator, partial curve] | 
35 | CCC(C)C(=O)Nc1nc(C)c(-c2csc(Nc3ccc(Cl)cc3)n2)s1 (stereo not drawn) | active: 16.4 µM | 
36 | CCc1cc(C(=O)OCC(=O)N2CCC(c3ccccc3)=N2)sc1C | inconclusive: 1.03 µM [falling, full curve, poor fit] | 
37 | Cc1c(NS(=O)(=O)c2ccc(C(=O)N(C)Cc3cccc(Cl)c3Cl)cc2)c(=O)n(-c2ccccc2)n1C | inconclusive: 23.1 µM [falling, partial curve] | 
38 | Cc1ccc(NC(=O)c2oc3ccc4c(c3c2C)C(=O)CC(C)(C)O4)c(C)c1 | inconclusive: 4.61 µM [activator, partial curve] | 
39 | CC(Oc1ccc(Br)cc1)C(=O)O/N=C(\N)c1ccncc1 (stereo not drawn) | inconclusive: 13 µM [falling, partial curve, poor fit] | 
40 | CCN1CCOC(CC(=O)Nc2ccc([N+](=O)[O-])cc2)C1=O (stereo not drawn) |  | inactive: 0.82%
41 | COc1ccc(-c2nc3cc(C)ccn3c2NC2CCCCC2)cc1SC1CCCCC1 | inconclusive: 29.1 µM [falling, single point] | 
42 | FC(F)(F)c1ccc(C2[C@H]3CN(Cc4ccc(-c5ccccc5)cc4)[C@H](c4ccccc4)C34CC2(c2cccnc2)C4)cc1 (stereo partly drawn) |  | inactive: 15.9%
43 | N/C(=N\OC(=O)C1CCCCC1)c1ccccn1 | inconclusive: 2.59 µM [activator, full curve] | 
44 | CCOc1c(Br)cc(C2CC(=O)Nc3cc4c(cc32)OCO4)cc1OC (stereo not drawn) | active: 20.6 µM | 
45 | Cc1ccc(C(OCC(O)CNCc2ccc(F)cc2)c2ccccc2)cc1 (stereo not drawn) | inconclusive: 25.9 µM [falling, single point] | 
46 | COc1cc2c(cc1OC)C(c1cccs1)N(C(=O)c1cccc(S(=O)(=O)N(C)C)c1)CC2 (stereo not drawn) | inconclusive: 5.8 µM [activator, full curve, poor fit] | 

Row | Structure (SMILES) | Potency | activity change, negative = inhibition
47 | COc1cccc(Cl)c1NC(=O)N1CCN(c2cc(C)nc3ccccc23)CC1 | active: 23.1 µM | 
48 | CCCS(=O)(=O)Nc1cccc(-c2cn3ccc(C)cc3n2)c1 | inconclusive: 20.6 µM [activator, single point] | 
49 | COc1ccc2c(-c3ccccc3)cc(N3CCOCC3)nc2c1 | inconclusive: 32.6 µM [falling, single point] | 
50 | CCN(CC(=O)Nc1ccccc1C(F)(F)F)C(=O)c1cc2c(s1)CCCCC2 |  | inactive: -17.3%
51 | CC(=O)Nc1ccc(Nc2cc(N(C)C)c3nonc3c2[N+](=O)[O-])cc1 |  | inactive: -14.3%
52 | CC(C)N1CN=C(Nc2nc3ccccc3o2)NC1 | inconclusive: 10.3 µM [activator, partial curve] | 
53 | CCOc1ccccc1N1CCN(C(=O)c2cn(CC3CCCCC3)nn2)CC1 | inconclusive: 13 µM [activator, partial curve] | 
54 | COc1ccc(C(=O)N2N=C(c3cccc(NS(C)(=O)=O)c3)CC2c2cccs2)cc1 (stereo not drawn) | inconclusive: 25.9 µM [falling, single point] | 
55 | COc1cc2cc(CNc3ccccc3)c(=O)n(CC(=O)Nc3ccc(C)c(Cl)c3)c2cc1OC | inconclusive: 16.4 µM [activator, partial curve, poor fit] | 
56 | Cc1ccc(C)c(NC(=O)c2nnn(Cc3ccccc3)c2N)c1 | inconclusive: 14.6 µM [falling, partial curve, poor fit] | 
57 | COCCN(Cc1ccco1)C(=O)c1cc2c(=O)[nH]c3ccc(C)cc3c2s1 | inconclusive: 1.84 µM [falling, full curve, poor fit] | 
58 | Cc1ccc(NC(=O)c2cccc(F)c2)cc1S(=O)(=O)N1CCCCCC1 | inconclusive: 29.1 µM [falling, single point] | 
59 | CCN(CC)S(=O)(=O)c1ccc(C)c(NC(=O)CNc2cccc(S(=O)(=O)N3CCCC3)c2)c1 | inconclusive: 23.1 µM [falling, single point] | 
60 | O=C(NC1CCCCC1)C(c1ccccc1)N(Cc1ccco1)C(=O)Cn1cnc2ccccc21 (stereo not drawn) |  | inactive: -8.81%
61 | Cc1cc(C)c(NC(=O)CN(C)C(C)C(=O)N2CCc3ccccc32)c(C)c1 (stereo not drawn) |  | inactive: 8.67%
62 | COc1ccc(NC(=O)C2=CC(c3ccc(C)cc3)=NS(=O)(=O)N2C)cc1 | inconclusive: 32.6 µM [falling, single point] | 
63 | Cc1ccc(SCC(c2ccccc2)N2CCN(C)CCC2=O)cc1 (stereo not drawn) | inconclusive: 11.6 µM [activator, partial curve] | 
64 | COc1ccc(S(=O)(=O)N2CCOCC2)cc1NC(=O)CCc1c[nH]c2ccccc12 | inconclusive: 14.6 µM [falling, partial curve, poor fit] | 
65 | CCC(C)c1ccc(NC(=S)NCCn2cc(Cl)cn2)cc1 (stereo not drawn) | inconclusive: 6.51 µM [activator, partial curve, poor fit] | 
66 | CCCc1ccc(OCc2ccc(C(=O)O)o2)c(OC)c1 | inconclusive: 25.9 µM [activator, single point] | 
67 | CN(Cc1ccccc1)S(=O)(=O)c1ccc(NC(=O)c2cc(=O)c3ccccc3o2)cc1 | inconclusive: 2.06 µM [falling, full curve] | 
68 | COc1ccc(CN(Cc2ccccc2)C(=O)C2CC2)cc1COc1ccc(NC(C)=O)cc1 | active: 20.6 µM | 

At a glance, 2 of the compounds above:
Row | Structure (SMILES) | Potency | activity change, negative = inhibition
54 | COc1ccc(C(=O)N2N=C(c3cccc(NS(C)(=O)=O)c3)CC2c2cccs2)cc1 (stereo not drawn) | inconclusive: 25.9 µM [falling, single point] | 
55 | COc1cc2cc(CNc3ccccc3)c(=O)n(CC(=O)Nc3ccc(C)c(Cl)c3)c2cc1OC | inconclusive: 16.4 µM [activator, partial curve, poor fit] | 

Reference: PubChem BioAssay AID504444 (National Center for Advancing Translational Sciences (NCATS), 2011)
